Source: PMC7550611
These are yes or no findings as the source states them, for the method shown. Sequences can lack the tags named with a protein.

Molecular target: human ADAR1 deaminase domain, wild type (hADAR1d WT), after TEV cleavage of MBP (human) (UniProt P55265)
Test: native MS; native LC-MS of purified protein at 10 µM; isocratic elution with 200 mM ammonium acetate pH 7.0, column at 23 °C; Q-TOF, positive ion electrospray; both purified

B1: human ADAR1 deaminase domain, wild type (hADAR1d WT), after TEV cleavage of MBP (domain or fragment, UniProt P55265 833-1226)
chain: SGGSLPLTGSTFHDQIAMLSHRCFNTLTNSFQPSLLGRKILAAIIMKKDSEDMGVVVSLGTGNRCVKGDSLSLKGETVNDCHAEIISRRGFIRFLYSELMKYNSQTAKDSIFEPAKGGEKLQIKKTVSFHLYISTAPCGDGALFDKSCSDRAMESTESRHYPVFENPKQGKLRTKVENGEGTIPVESSDIVPTWDGIRLGERLRTMSCSDKILRWNVLGLQGALLTHFLQPIYLKSVTLGYLFSQGHLTRAICCRVTRDGSAFEDGLRHPFIVNHPKVGRVSIYDSKRQSGKTKETSVNWCLADGYDLEILDGTRGTVDGPRNELSRVSKKNIFLLFKKLCSFRYRRDLLRLSYGEAKKAARDYETAKNYFKKGLKDMGYGNWISKPQEEKNFYLCPV
  binding: no binding (tested: 10 µM)
